# Some of these results come from one statement about several compounds together.
# Tested on: visual acuity
# Test: Visual acuity and depth perception after consumption
# Format: in vivo, human
# Conditions: individuals
structure (smiles),measurement,value
"CC(O)CCOC(=O)CC(C)O (stereo not shown) [Ketone Ester, 3-hydroxybutyl-3-hydroxybutyrate]",duration of immediate increases in visual acuity and depth perception,up to 4 hours

# From patent US12098411B2, “Exogenous ketone blend compositions for delivery of ketone bodies” (KetoneAid, Inc., priority 2016, dated 2024)
